PubChem BioAssay AID1259308 – NCATS – 2017

Screen: 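Genes whose loss raises luciferase production in HEK293 cells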 (primary screen)
Cell system: human HEK293 embryonic kidney cells stably expressing firefly luciferase (HEK-CMV-Luc2-Hygro)
Reagents: single siRNA against human genes, 0.8 pmol siRNA per well
Time to read-out: 72 h
Measurement: 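Reporter luminescence and viable-cell signal on separate replicate plates, given as percent of non-targeting control and median/MAD z-scores, plus per-cell luciferase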
Direction: total luciferase, z-score: higher = more reporter protein produced
Active means: 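Active when the median/MAD z-score for overall luciferase is greater than 3; a gene was taken forward for validation with new siRNAs if at least two of its three siRNAs passed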
Meaning of the calls: active = raised luciferase; inactive = no rise
The whole screen tested about 59,000 reagents; this is an unselected part. Of all reagents, about 1,510 (2.6%) are marked active. 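Calls use total luciferase alone and ignore viability, so some active siRNAs may act by altering cell number.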 Unmarked entries are inactive. The numbers tell different reagents against one gene apart. Further read-outs or replicates are left out here.

The opening 2 entries, to show the layout:
gene knocked down,siRNA no.,"total luciferase, z-score"
CACYBP,1,0.0524
CACYBP,2,-1.18

Main list, from the start:
gene knocked down,siRNA no.,"total luciferase, z-score"
CACYBP,1,0.0524
CACYBP,2,-1.18
CACYBP,3,0.103
CCDC82,1,0.891
CCDC82,2,0.0607
CCDC82,3,-0.725
RPS23P8,1,-0.782
RPS23P8,2,-0.711
RPS23P8,3,-2.63
KIF5C,1,1.93
KIF5C,2,0.262
KIF5C,3,0.544
SLC26A9,1,-0.99
SLC26A9,2,0.544
SLC26A9,3,0.438
UBA52,1,-1.58
UBA52,2,-2.66
UBA52,3,-1.44
DSCAML1,1,-0.43
DSCAML1,2,2.33
DSCAML1,3,1.53
SEC23A,1,-0.0718
SEC23A,2,-0.61
SEC23A,3,0.148
OR2B11,1,0.0725
OR2B11,2,-0.832
OR2B11,3,-0.43
HLA-DPB1,1,0.451
HLA-DPB1,2,0.527
HLA-DPB1,3,0.853
ZFP91,1,0.0854
ZFP91,2,0.355
ZFP91,3,-0.672
LINC01104,1,0.381
LINC01104,2,0.26
LINC01104,3,-2.33
GHR,1,0.256
GHR,2,0.137
GHR,3,1.31
CALCA,1,0.118
CALCA,2,0.733
CALCA,3,1.93
DBX2,1,0.356
DBX2,2,0.0239
DBX2,3,0.726
HAND1,1,-0.074
HAND1,2,0.795
HAND1,3,0.131
JPH4,1,0.739
JPH4,2,-1.57
JPH4,3,2.88
ACTN2,1,-0.234
ACTN2,2,-0.183
ACTN2,3,-0.115
RADX,1,-0.095
RADX,2,-0.464
RADX,3,-0.147
